Experimental data: PubChem BioAssay (NCI)
Most of the hits are listed elsewhere, so they are rarer here than in the full data. The source made the active and inactive calls. No stated cut-off is given here; in the data, active means growth inhibition above about 70%; inactive means the rest.

Tests used:
[1] = NCI Yeast Anticancer Drug Screen. Data for the rad52 strain (AID 147);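 further: 0% = growth of vehicle-treated control cultures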; settings: S. cerevisiae rad52 mutant growth inhibition, active compounds read high
Outline: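 Screen used a yeast mutant impaired in DNA repair. After compound exposure, growth was measured. Values reflect inhibition compared with vehicle-treated cells.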

[2] = NCI Yeast Anticancer Drug Screen. Data for the wt1 strain (AID 149);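 further: 0% = growth of vehicle-treated wt1 cultures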; settings: S. cerevisiae wt1 strain (SPY 50644) growth inhibition, active compounds read high
Outline: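 The wt1 strain was treated with compounds, and growth was compared with vehicle-treated cultures to give inhibition.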

[3] = NCI Yeast Anticancer Drug Screen. Data for the rad50EPP+ strain (AID 151);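 further: 0% = growth of vehicle-treated control cultures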; settings: S. cerevisiae rad50 mutant strain, active compounds read high
Outline: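 Exposing the rad50EPP+ strain to each compound, growth was compared with vehicle-only cultures to give inhibition.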

[4] = NCI Yeast Anticancer Drug Screen. Data for the mgt1 strain (AID 153); settings: S. cerevisiae mgt1 mutant growth inhibition, active compounds read high
Outline: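 Genetically defined yeast (mgt1) treated with compound; inhibition of growth expressed against vehicle-treated controls.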

[5] = NCI Yeast Anticancer Drug Screen. Data for the rad14 strain (AID 159);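 further: 0% = growth of vehicle-treated control cultures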; settings: S. cerevisiae rad14 strain growth inhibition, active compounds read high
Outline: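 Readout: yeast growth inhibition, referenced to vehicle-only cultures. Strain bears a defined alteration in DNA damage repair.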

[6] = NCI Yeast Anticancer Drug Screen. Data for the CLN2oe strain (AID 163);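 further: 0% = growth of vehicle-only control cultures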; settings: S. cerevisiae CLN2oe strain, active compounds read high
Outline: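 Values reflect how much compound exposure reduced yeast growth, referenced to vehicle-exposed cells. Assay organism is a strain with a defined genetic change affecting cell-cycle control.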

[7] = NCI Yeast Anticancer Drug Screen. Data for the wt2 strain (AID 169);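 further: 0% = growth of vehicle-treated yeast cultures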; settings: S. cerevisiae wt2 strain growth inhibition, active compounds read high
Outline: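 Values express reduction in yeast growth under compound treatment, referenced to vehicle-treated cells.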

[8] = NCI Yeast Anticancer Drug Screen. Data for the mlh1 strain (AID 171);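 further: 0% = growth of vehicle-treated control cultures of the same strain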; settings: S. cerevisiae mlh1 strain growth inhibition, active compounds read high
Outline: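 Steps: expose the defined-mutant yeast strain to compound; expose a parallel culture to vehicle; measure growth; express compound effect as inhibition relative to the vehicle culture.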

[9] = NCI Yeast Anticancer Drug Screen. Data for the sgs1 strain (AID 173);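 further: 0% = growth of vehicle-only control cultures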; settings: S. cerevisiae sgs1 mutant, active compounds read high
Outline: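 Treat defined-mutant yeast with compound; measure growth; calculate inhibition relative to vehicle-treated cells.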

[10] = NCI Yeast Anticancer Drug Screen. Data for the rad18 strain (AID 177); settings: S. cerevisiae rad18 mutant growth inhibition, active compounds read high
Outline: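 A genetically defined yeast mutant impaired in DNA damage repair was treated with test compounds, then its growth was measured against cultures receiving vehicle alone.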

Measured: growth inhibition

COc1ccc(OC)c(/C=C(/C#N)C(N)=O)c1
inactive: [1]; at 1.2 µM -5% | [1]; at 3.7 µM -8% | [1]; at 11.0 µM -14% | [1]; at 33.0 µM -12% | [1]; at 100.0 µM 6% | [2]; at 1.2 µM -3% | [2]; at 3.7 µM -2% | [2]; at 11.0 µM -2% | [2]; at 33.0 µM 0% | [2]; at 100.0 µM 4% | [3]; at 1.2 µM -1% | [3]; at 3.7 µM 0% | [3]; at 11.0 µM 6% | [3]; at 33.0 µM 10% | [3]; at 100.0 µM 19% | [4]; at 1.2 µM -2% | [4]; at 3.7 µM -3% | [4]; at 11.0 µM -1% | [4]; at 33.0 µM 8% | [4]; at 100.0 µM 2% | [5]; at 1.2 µM -4% | [5]; at 3.7 µM -3% | [5]; at 11.0 µM -1% | [5]; at 33.0 µM 0% | [5]; at 100.0 µM 7% | [6]; at 1.2 µM 1% | [6]; at 3.7 µM 1% | [6]; at 11.0 µM 0% | [6]; at 33.0 µM 4% | [6]; at 100.0 µM 5% | [7]; at 1.2 µM 1% | [7]; at 3.7 µM 4% | [7]; at 11.0 µM 3% | [7]; at 33.0 µM 1% | [7]; at 100.0 µM 0% | [8]; at 1.2 µM 6% | [8]; at 3.7 µM -2% | [8]; at 11.0 µM -6% | [8]; at 33.0 µM -3% | [8]; at 100.0 µM -1% | [9]; at 1.2 µM 1% | [9]; at 3.7 µM 2% | [9]; at 11.0 µM 5% | [9]; at 33.0 µM 5% | [9]; at 100.0 µM 3% | [10]; at 1.2 µM -6% | [10]; at 3.7 µM 0% | [10]; at 11.0 µM 2% | [10]; at 33.0 µM 3% | [10]; at 100.0 µM 8%

CCCCN1C(=O)C(=O)C(C(=O)OCC)C1C(=O)OCC (stereo not given)
inactive: [1]; at 1.2 µM -3% | [1]; at 3.7 µM -1% | [1]; at 11.0 µM 3% | [1]; at 33.0 µM 0% | [1]; at 100.0 µM 5% | [3]; at 1.2 µM -5% | [3]; at 3.7 µM -4% | [3]; at 11.0 µM 4% | [3]; at 33.0 µM -4% | [3]; at 100.0 µM -1% | [4]; at 1.2 µM -2% | [4]; at 3.7 µM 0% | [4]; at 11.0 µM 2% | [4]; at 33.0 µM 5% | [4]; at 100.0 µM 8% | [5]; at 1.2 µM -2% | [5]; at 3.7 µM 3% | [5]; at 11.0 µM 9% | [5]; at 33.0 µM 9% | [5]; at 100.0 µM 20% | [6]; at 1.2 µM 2% | [6]; at 3.7 µM 4% | [6]; at 11.0 µM 8% | [6]; at 33.0 µM 15% | [6]; at 100.0 µM 22% | [7]; at 1.2 µM -5% | [7]; at 3.7 µM -7% | [7]; at 11.0 µM 3% | [7]; at 33.0 µM 2% | [7]; at 100.0 µM -3% | [8]; at 1.2 µM -3% | [8]; at 3.7 µM 0% | [8]; at 11.0 µM 3% | [8]; at 33.0 µM 5% | [8]; at 100.0 µM 11% | [9]; at 1.2 µM -19% | [9]; at 3.7 µM -17% | [9]; at 11.0 µM -18% | [9]; at 33.0 µM -6% | [9]; at 100.0 µM 14% | [10]; at 1.2 µM -7% | [10]; at 3.7 µM -1% | [10]; at 11.0 µM -2% | [10]; at 33.0 µM -1% | [10]; at 100.0 µM 11%

COc1ccc2c(c1)N(CCC1CCCCN1C)c1ccccc1S2 (stereo not given)
inactive: [1]; at 1.2 µM -3% | [1]; at 3.7 µM -4% | [1]; at 11.0 µM -6% | [1]; at 33.0 µM -6% | [1]; at 100.0 µM 23% | [2]; at 1.2 µM 0% | [2]; at 3.7 µM -1% | [2]; at 11.0 µM -2% | [2]; at 33.0 µM -6% | [2]; at 100.0 µM 3% | [3]; at 1.2 µM -7% | [3]; at 3.7 µM -7% | [3]; at 11.0 µM -10% | [3]; at 33.0 µM -12% | [3]; at 100.0 µM -13% | [4]; at 1.2 µM -2% | [4]; at 3.7 µM 0% | [4]; at 11.0 µM -2% | [4]; at 33.0 µM -3% | [4]; at 100.0 µM 27% | [5]; at 1.2 µM -2% | [5]; at 3.7 µM -3% | [5]; at 11.0 µM 3% | [5]; at 33.0 µM 0% | [5]; at 100.0 µM 67% | [6]; at 1.2 µM -7% | [6]; at 3.7 µM 0% | [6]; at 11.0 µM -2% | [6]; at 33.0 µM 3% | [6]; at 100.0 µM 39% | [7]; at 1.2 µM -2% | [7]; at 3.7 µM -1% | [7]; at 11.0 µM -3% | [7]; at 33.0 µM -2% | [7]; at 100.0 µM 26% | [8]; at 1.2 µM -3% | [8]; at 3.7 µM -1% | [8]; at 11.0 µM -2% | [8]; at 33.0 µM -26% | [8]; at 100.0 µM 26% | [9]; at 1.2 µM -4% | [9]; at 3.7 µM -4% | [9]; at 11.0 µM -5% | [9]; at 33.0 µM -2% | [9]; at 100.0 µM 40% | [10]; at 1.2 µM -17% | [10]; at 3.7 µM -14% | [10]; at 11.0 µM -44% | [10]; at 33.0 µM -17% | [10]; at 100.0 µM 16%

CCN(CCO)C(C(=O)c1ccc(-c2ccccc2)cc1)c1ccc(-c2ccccc2)cc1 (stereo not given)
inactive: [1]; at 1.2 µM 0% | [1]; at 3.7 µM 0% | [1]; at 11.0 µM -1% | [1]; at 33.0 µM -2% | [1]; at 100.0 µM -4% | [2]; at 1.2 µM -1% | [2]; at 3.7 µM -1% | [2]; at 11.0 µM -2% | [2]; at 33.0 µM -1% | [2]; at 100.0 µM -2% | [3]; at 1.2 µM -2% | [3]; at 3.7 µM 0% | [3]; at 11.0 µM 1% | [3]; at 33.0 µM 0% | [3]; at 100.0 µM 3% | [4]; at 1.2 µM -2% | [4]; at 3.7 µM -1% | [4]; at 11.0 µM -4% | [4]; at 33.0 µM -2% | [4]; at 100.0 µM -4% | [5]; at 1.2 µM -1% | [5]; at 3.7 µM -2% | [5]; at 11.0 µM -3% | [5]; at 33.0 µM -5% | [5]; at 100.0 µM -5% | [6]; at 1.2 µM 0% | [6]; at 3.7 µM -3% | [6]; at 11.0 µM 0% | [6]; at 33.0 µM 1% | [6]; at 100.0 µM -1%
